Record: PubChem BioAssay AID743454 (Peter MacCallum Cancer Centre, 2014)
In all, the deposit lists about 18,000 reagents; this is a part drawn at random. 450 of them (2.5%) count as active. 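Single biological run; no consistent viability z cut-off exists, so the class columns, not z-scores, define the calls.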 A number with no mark means an inactive call.

Test: 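Knock-downs lowering viability or raising caspase 3/7 activity in vorinostat-treated resistant cells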 (primary screen)
Cell system: human HCT116-VR colon cancer cells, selected for vorinostat resistance
Knock-down reagent: siRNA pool against human genes, 40 nM siRNA pool
Timing: vorinostat for 24 h, read-out about 72 h after transfection
Conditions: vorinostat at 2.5 µM final
Read-out: 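Two measures, CellTiter-Fluor viability and luminescent caspase 3/7 activity, each as fold change against same-plate mock wells, mean of duplicates, then screen-wide robust z-score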
Reading the numbers: viability robust z-score: higher = more viable cells than screen typical; caspase robust z-score: higher = more caspase 3/7 activity than screen typical
Active means: 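Hits are knock-downs in viability class RV1/RV2 or caspase class CA1/CA2, excluding ones that killed cells in the no-drug cell-count arm; hits then retested with single siRNAs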

Silencing of MPP7 (GeneID 143098) came out at: viability hit class no change; caspase hit class no change; viability robust z-score 1.04; caspase robust z-score -0.53. Against R3HDM2 (GeneID 22864), the values are viability hit class no change; caspase hit class no change; viability robust z-score -0.06; caspase robust z-score 0.14. With knock-down of USP10 (GeneID 9100), the screen gave viability hit class no change; caspase hit class no change; viability robust z-score 1.06; caspase robust z-score 0. INA (GeneID 9118) showed viability hit class no change; caspase hit class no change; viability robust z-score 0.12; caspase robust z-score 0.92. Knock-down of SLC35B2 (GeneID 347734) resulted in: viability hit class no change; caspase hit class no change; viability robust z-score 1.34; caspase robust z-score -0.46. ATG4D (GeneID 84971) showed viability hit class no change; caspase hit class no change; viability robust z-score -1.4; caspase robust z-score -0.71.

After knock-down of GAGE2C (GeneID 2574), the record shows viability hit class no change; caspase hit class no change; viability robust z-score 0.52; caspase robust z-score 1.09. Depletion of WIF1 (GeneID 11197) gave: viability hit class no change; caspase hit class no change; viability robust z-score 0.28; caspase robust z-score 1.98. CMC2 (GeneID 56942) gave viability hit class no change; caspase hit class no change; viability robust z-score -0.52; caspase robust z-score -0.58. Knock-down of ZDHHC3 (GeneID 51304) came out at: viability hit class no change; caspase hit class no change; viability robust z-score -0.79; caspase robust z-score 1.7. Depletion of EMC7 (GeneID 56851) gave: viability hit class no change; caspase hit class no change; viability robust z-score -0.55; caspase robust z-score 2. Against ALG1L1P (GeneID 200810), the values are viability hit class no change; caspase hit class no change; viability robust z-score 0.28; caspase robust z-score -0.24.

With knock-down of FN3K (GeneID 64122), the record shows viability hit class no change; caspase hit class no change; viability robust z-score -0.66; caspase robust z-score 0.16. After knock-down of OTOL1 (GeneID 131149), the screen gave viability hit class no change; caspase hit class no change; viability robust z-score 0.56; caspase robust z-score -0.5. Against SLC25A39 (GeneID 51629) the deposit lists viability hit class no change; caspase hit class no change; viability robust z-score -0.87; caspase robust z-score 2.02. Knock-down of PDCL3 (GeneID 79031) resulted in: viability hit class no change; caspase hit class no change; viability robust z-score 0.92; caspase robust z-score -0.92. With knock-down of DDX10 (GeneID 1662), the screen gave viability hit class no change; caspase hit class no change; viability robust z-score -0.48; caspase robust z-score -0.9. Silencing of PLEKHO2 (GeneID 80301) gave: viability hit class no change; caspase hit class no change; viability robust z-score -0.78; caspase robust z-score 2.26.

Against PCDHA7 (GeneID 56141), the values are viability hit class no change; caspase hit class no change; viability robust z-score -0.85; caspase robust z-score -0.61. Against DPH7 (GeneID 92715), the values are viability hit class no change; caspase hit class no change; viability robust z-score -0.1; caspase robust z-score -0.34. KLHL32 (GeneID 114792) showed viability hit class no change; caspase hit class no change; viability robust z-score -1.97; caspase robust z-score -0.29.

3 neighbouring reagents already listed, quoted:
EMC7 (GeneID 56851): viability hit class = no change; caspase hit class = no change; viability robust z-score = -0.55; caspase robust z-score = 2
ALG1L1P (GeneID 200810): viability hit class = no change; caspase hit class = no change; viability robust z-score = 0.28; caspase robust z-score = -0.24
FN3K (GeneID 64122): viability hit class = no change; caspase hit class = no change; viability robust z-score = -0.66; caspase robust z-score = 0.16
